Earlier results, collected in article PMC2597681 (Biochemistry, 2008).

Chains of the proteins cited; added tags and fusions are not shown. Residues count along the entry.
UniProt P03887, whole entry: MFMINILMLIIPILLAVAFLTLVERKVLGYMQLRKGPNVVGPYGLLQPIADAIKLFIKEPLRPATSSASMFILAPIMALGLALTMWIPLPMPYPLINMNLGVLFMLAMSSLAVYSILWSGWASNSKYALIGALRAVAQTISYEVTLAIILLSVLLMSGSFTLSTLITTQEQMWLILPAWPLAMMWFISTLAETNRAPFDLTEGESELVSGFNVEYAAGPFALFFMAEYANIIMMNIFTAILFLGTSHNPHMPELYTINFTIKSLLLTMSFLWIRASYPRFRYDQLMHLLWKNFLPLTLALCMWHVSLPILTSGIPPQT
UniProt P17694, 34-463: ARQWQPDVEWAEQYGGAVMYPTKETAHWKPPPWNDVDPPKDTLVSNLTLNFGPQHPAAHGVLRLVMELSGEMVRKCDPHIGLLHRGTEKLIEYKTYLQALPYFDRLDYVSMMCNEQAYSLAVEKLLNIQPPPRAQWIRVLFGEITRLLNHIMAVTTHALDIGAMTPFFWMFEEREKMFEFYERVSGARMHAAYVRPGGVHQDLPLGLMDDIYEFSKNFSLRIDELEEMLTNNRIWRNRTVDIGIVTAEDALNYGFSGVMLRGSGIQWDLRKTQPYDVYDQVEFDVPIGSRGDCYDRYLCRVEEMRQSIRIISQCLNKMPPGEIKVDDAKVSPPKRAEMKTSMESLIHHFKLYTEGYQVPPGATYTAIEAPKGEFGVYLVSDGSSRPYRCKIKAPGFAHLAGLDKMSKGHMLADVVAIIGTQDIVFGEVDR

Target: ND1 subunit (Bos taurus, UniProt P03887+P17694)
Conditions: ref [19]; cited from earlier work

C=C(C)[C@H]1Cc2c(ccc3c2O[C@@H]2COc4cc(OC)c(OC)cc4[C@@H]2C3=O)O1 [rotenone]
Suppression of specific binding of [125I]TDA to ND1 (in words): completely suppress
